Test results reported in publication PMC4849774.
These are yes or no findings as the source states them, for the method shown. In cells and extracts the contact can be indirect. Some results given as binding are weak or reduced against the parent protein; the word gives no strength. Where a sequence is shown, tags or fusion partners need not be part of it.

Sequences of proteins named here, by UniProt entry; tags and fusion partners are left off.
UniProt Q921F2: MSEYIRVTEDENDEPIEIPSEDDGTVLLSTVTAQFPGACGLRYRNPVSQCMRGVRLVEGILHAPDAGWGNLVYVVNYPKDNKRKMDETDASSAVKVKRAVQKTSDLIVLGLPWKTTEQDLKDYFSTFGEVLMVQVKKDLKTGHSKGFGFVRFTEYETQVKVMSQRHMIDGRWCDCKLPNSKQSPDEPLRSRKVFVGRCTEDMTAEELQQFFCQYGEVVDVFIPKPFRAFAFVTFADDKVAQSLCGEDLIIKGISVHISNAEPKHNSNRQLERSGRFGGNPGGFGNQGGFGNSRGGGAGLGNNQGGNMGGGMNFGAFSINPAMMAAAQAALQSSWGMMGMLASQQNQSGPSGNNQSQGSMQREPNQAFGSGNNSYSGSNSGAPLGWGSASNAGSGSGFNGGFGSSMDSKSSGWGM

Key:
Myc-USP7 (human), Q93009 = assay: co-IP; NIH3T3 cells expressing FLAG-CRY2 and/or Myc-USP7, 10 uM MG132 for 6 hours, IP Buffer (137 mM NaCl, 1% Triton X-100, pH 7.8), anti-FLAG or anti-Myc antibody, Protein G-Sepharose, 4°C; normal mouse IgG as negative control; details: remark: other sources report otherwise
FLAG-TDP-43 (mouse) = FLAG-TDP-43 (mouse) (UniProt Q921F2); assay: co-IP; HEK293 cells expressing FLAG-CRY2, or Myc-CRY2 and/or FLAG-TDP-43, lysed with IP Buffer, immunoprecipitation with anti-FLAG antibody, western blotting

Binder	binding (Myc-USP7 (human), Q93009)	binding (FLAG-TDP-43 (mouse))
FLAG-CRY2 (in NIH3T3 cells), Q9R194 1-592 (protein) MAAAAVVAATVPAQSMGADGASSVHWFRKGLRLHDNPALLAAVRGARCVRCVYILDPWFAASSSVGINRWRFLLQSLEDLDTSLRKLNSRLFVVRGQPADVFPRLFKEWGVTRLTFEYDSEPFGKERDAAIMKMAKEAGVEVVTENSHTLYDLDRIIELNGQKPPLTYKRFQALISRMELPKKPAVAVSSQQMESCRAEIQENHDDTYGVPSLEELGFPTEGLGPAVWQGGETEALARLDKHLERKAWVANYERPRMNANSLLASPTGLSPYLRFGCLSCRLFYYRLWDLYKKVKRNSTPPLSLFGQLLWREFFYTAATNNPRFDRMEGNPICIQIPWDRNPEALAKWAEGKTGFPWIDAIMTQLRQEGWIHHLARHAVACFLTRGDLWVSWESGVRVFDELLLDADFSVNAGSWMWLSCSAFFQQFFHCYCPVGFGRRTDPSGDYIRRYLPKLKGFPSRYIYEPWNAPESVQKAAKCIIGVDYPRPIVNHAETSRLNIERMKQIYQQLSRYRGLCLLASVPSCVEDLSHPVAEPGSSQAGSISNTGPRALSSGPASPKRKLEAAEEPPGEELTKRARVTEMPTQEPASKDS	binds	–
Myc-CRY2 (in HEK293 cells) (protein, UniProt Q9R194 1-592) MAAAAVVAATVPAQSMGADGASSVHWFRKGLRLHDNPALLAAVRGARCVRCVYILDPWFAASSSVGINRWRFLLQSLEDLDTSLRKLNSRLFVVRGQPADVFPRLFKEWGVTRLTFEYDSEPFGKERDAAIMKMAKEAGVEVVTENSHTLYDLDRIIELNGQKPPLTYKRFQALISRMELPKKPAVAVSSQQMESCRAEIQENHDDTYGVPSLEELGFPTEGLGPAVWQGGETEALARLDKHLERKAWVANYERPRMNANSLLASPTGLSPYLRFGCLSCRLFYYRLWDLYKKVKRNSTPPLSLFGQLLWREFFYTAATNNPRFDRMEGNPICIQIPWDRNPEALAKWAEGKTGFPWIDAIMTQLRQEGWIHHLARHAVACFLTRGDLWVSWESGVRVFDELLLDADFSVNAGSWMWLSCSAFFQQFFHCYCPVGFGRRTDPSGDYIRRYLPKLKGFPSRYIYEPWNAPESVQKAAKCIIGVDYPRPIVNHAETSRLNIERMKQIYQQLSRYRGLCLLASVPSCVEDLSHPVAEPGSSQAGSISNTGPRALSSGPASPKRKLEAAEEPPGEELTKRARVTEMPTQEPASKDS	–	binds
